The supplement of paper PMC10849652
The list shows a part of the results.

Amino acid sequences for entries named in this document (tags omitted). A change or cut given only in a name is not applied to a line headed by its entry.
UniProt Q9Y2H6: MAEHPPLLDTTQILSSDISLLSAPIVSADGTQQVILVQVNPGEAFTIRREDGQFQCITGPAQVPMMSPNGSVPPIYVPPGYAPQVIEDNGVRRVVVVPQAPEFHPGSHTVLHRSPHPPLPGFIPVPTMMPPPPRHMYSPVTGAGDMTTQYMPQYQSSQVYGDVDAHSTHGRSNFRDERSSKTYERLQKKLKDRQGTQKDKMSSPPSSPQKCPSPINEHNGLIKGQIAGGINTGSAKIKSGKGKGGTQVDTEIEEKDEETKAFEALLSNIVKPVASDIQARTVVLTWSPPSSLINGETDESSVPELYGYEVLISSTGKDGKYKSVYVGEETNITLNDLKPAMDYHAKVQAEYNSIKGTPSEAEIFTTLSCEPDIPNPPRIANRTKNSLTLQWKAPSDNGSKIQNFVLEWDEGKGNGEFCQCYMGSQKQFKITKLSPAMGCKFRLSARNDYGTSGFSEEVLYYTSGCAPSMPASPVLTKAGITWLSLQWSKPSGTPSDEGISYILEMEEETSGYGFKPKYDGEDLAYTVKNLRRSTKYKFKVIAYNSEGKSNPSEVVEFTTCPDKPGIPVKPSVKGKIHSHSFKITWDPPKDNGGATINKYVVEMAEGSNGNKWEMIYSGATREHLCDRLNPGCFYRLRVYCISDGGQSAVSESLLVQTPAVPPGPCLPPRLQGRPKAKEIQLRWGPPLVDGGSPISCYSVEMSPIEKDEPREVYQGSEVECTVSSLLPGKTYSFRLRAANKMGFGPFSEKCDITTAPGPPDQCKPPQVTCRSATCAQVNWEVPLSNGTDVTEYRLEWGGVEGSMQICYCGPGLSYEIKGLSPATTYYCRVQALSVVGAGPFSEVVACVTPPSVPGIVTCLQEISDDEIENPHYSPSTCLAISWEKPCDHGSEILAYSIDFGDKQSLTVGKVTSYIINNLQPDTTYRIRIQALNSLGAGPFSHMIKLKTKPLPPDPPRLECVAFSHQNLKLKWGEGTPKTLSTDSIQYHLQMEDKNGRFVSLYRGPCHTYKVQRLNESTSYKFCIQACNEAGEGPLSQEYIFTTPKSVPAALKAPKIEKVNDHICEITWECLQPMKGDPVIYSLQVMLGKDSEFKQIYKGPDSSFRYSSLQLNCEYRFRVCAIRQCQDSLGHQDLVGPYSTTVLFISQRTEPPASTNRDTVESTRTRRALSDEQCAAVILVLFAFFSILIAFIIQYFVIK
UniProt Q8N0W7: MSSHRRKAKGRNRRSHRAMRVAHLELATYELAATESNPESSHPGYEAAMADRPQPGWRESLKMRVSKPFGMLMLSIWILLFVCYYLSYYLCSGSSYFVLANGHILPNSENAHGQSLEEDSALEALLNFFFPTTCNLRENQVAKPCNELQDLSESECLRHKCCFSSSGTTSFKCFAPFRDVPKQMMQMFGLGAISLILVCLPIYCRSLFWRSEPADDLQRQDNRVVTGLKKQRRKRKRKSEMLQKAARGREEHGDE
UniProt Q9NVK5: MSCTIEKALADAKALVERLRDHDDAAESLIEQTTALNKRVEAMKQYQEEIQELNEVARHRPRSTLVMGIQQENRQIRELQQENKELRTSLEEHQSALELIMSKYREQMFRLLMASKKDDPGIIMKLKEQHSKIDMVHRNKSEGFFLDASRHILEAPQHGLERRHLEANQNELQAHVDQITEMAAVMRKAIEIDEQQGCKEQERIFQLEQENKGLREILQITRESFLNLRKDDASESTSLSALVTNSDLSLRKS
UniProt Q9UK22: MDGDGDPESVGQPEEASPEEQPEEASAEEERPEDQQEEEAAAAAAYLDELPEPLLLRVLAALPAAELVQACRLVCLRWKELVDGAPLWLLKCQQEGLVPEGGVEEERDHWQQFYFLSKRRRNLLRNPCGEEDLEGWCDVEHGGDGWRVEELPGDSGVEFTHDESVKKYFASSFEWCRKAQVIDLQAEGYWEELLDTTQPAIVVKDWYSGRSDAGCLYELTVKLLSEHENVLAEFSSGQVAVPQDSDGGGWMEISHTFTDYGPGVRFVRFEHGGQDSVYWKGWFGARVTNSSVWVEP
UniProt P02679: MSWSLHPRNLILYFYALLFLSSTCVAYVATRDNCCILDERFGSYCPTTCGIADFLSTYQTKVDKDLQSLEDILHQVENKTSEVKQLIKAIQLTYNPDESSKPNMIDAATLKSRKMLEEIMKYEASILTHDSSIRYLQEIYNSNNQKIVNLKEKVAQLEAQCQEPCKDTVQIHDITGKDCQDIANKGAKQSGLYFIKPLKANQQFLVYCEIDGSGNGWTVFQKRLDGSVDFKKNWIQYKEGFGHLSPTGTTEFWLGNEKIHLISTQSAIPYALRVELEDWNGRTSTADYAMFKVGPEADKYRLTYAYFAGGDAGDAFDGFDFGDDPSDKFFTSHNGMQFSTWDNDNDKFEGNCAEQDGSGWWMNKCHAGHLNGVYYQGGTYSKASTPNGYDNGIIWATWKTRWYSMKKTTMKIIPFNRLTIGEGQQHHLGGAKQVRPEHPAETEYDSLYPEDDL
UniProt Q86XK2: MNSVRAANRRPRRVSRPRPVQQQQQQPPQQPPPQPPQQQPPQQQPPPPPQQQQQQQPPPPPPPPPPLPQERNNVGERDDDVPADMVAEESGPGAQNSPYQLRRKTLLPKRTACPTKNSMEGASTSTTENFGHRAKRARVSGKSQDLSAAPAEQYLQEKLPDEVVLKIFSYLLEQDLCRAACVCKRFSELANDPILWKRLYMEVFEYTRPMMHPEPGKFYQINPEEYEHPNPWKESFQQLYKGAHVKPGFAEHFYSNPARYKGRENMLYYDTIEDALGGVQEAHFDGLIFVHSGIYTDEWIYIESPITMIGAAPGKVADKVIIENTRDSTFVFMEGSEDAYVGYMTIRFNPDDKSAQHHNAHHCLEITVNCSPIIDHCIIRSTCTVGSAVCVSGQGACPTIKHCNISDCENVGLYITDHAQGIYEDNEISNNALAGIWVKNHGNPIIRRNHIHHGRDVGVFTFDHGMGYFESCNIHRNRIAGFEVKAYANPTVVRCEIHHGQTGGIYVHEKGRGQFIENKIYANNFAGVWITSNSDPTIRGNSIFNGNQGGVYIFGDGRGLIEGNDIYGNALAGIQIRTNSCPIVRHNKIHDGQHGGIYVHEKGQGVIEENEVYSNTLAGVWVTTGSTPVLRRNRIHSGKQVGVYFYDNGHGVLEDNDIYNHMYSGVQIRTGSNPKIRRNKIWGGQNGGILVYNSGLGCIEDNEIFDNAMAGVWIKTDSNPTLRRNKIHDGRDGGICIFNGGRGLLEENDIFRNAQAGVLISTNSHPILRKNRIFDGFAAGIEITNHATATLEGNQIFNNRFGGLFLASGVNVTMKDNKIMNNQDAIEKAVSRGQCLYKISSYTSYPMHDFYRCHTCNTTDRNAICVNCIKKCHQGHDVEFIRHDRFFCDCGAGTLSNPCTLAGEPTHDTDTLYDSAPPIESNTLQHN
UniProt P0C5J1: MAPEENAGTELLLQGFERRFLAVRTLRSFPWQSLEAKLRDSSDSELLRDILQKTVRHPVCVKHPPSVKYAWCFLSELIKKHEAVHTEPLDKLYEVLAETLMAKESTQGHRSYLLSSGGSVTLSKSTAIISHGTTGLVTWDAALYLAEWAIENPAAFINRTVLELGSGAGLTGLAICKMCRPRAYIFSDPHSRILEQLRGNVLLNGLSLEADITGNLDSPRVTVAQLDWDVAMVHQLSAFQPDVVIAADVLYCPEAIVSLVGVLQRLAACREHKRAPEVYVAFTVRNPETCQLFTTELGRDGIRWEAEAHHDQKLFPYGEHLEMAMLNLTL
UniProt Q9HCM7, whole entry, looked up: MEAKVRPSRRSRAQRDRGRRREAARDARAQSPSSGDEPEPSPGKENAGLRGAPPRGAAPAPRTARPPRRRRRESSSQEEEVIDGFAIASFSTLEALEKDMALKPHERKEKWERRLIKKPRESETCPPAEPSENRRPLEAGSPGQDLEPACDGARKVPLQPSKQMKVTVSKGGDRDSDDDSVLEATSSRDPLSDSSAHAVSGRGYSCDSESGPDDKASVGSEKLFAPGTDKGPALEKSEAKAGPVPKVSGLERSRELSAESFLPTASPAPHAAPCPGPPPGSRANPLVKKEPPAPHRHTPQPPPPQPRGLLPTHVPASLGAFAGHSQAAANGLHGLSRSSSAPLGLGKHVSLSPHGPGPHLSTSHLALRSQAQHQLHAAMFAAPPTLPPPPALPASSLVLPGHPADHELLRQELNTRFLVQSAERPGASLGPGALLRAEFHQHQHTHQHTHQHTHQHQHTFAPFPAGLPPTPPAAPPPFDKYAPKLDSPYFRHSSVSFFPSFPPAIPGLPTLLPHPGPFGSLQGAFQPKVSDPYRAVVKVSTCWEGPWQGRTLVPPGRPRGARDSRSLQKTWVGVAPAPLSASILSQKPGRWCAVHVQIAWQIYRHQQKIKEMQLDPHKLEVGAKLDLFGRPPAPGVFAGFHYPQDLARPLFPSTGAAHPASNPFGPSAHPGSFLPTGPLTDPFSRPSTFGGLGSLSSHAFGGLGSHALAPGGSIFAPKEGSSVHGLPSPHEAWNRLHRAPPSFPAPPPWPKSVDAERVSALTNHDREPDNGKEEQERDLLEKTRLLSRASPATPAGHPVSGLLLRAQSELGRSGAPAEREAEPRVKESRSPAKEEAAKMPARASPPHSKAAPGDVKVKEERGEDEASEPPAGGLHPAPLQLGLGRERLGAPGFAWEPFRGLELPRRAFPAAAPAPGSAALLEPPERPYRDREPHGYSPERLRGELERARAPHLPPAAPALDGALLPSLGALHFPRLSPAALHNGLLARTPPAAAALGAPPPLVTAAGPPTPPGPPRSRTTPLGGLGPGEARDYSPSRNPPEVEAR
UniProt O95466, whole entry, looked up: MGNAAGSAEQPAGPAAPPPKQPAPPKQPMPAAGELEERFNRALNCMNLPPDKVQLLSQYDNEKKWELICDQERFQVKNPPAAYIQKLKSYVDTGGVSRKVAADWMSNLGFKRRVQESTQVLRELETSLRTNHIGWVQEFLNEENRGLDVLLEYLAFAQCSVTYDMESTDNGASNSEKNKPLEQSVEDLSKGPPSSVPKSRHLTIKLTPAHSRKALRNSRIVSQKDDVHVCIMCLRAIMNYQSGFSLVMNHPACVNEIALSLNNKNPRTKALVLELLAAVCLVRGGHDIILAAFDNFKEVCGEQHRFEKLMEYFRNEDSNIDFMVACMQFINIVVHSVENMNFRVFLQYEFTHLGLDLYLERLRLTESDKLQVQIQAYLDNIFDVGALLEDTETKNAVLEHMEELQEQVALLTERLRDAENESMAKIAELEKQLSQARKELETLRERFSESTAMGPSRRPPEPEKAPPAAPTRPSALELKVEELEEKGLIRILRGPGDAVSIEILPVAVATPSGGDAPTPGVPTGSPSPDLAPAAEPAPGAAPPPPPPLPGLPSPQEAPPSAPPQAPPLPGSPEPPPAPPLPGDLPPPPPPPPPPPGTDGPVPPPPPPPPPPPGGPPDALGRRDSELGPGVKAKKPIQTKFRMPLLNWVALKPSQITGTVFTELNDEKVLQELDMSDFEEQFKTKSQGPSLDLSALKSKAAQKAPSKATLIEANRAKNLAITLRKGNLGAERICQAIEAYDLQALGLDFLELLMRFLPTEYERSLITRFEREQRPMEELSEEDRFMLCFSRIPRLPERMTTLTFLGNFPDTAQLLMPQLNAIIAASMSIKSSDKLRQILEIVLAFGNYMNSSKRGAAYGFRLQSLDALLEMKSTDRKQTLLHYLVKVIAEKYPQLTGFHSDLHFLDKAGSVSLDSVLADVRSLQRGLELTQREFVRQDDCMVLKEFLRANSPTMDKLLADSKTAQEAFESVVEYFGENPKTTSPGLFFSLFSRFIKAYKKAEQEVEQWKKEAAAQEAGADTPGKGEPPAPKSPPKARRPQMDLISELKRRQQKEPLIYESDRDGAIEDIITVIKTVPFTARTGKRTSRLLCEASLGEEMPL
UniProt Q8NFG4: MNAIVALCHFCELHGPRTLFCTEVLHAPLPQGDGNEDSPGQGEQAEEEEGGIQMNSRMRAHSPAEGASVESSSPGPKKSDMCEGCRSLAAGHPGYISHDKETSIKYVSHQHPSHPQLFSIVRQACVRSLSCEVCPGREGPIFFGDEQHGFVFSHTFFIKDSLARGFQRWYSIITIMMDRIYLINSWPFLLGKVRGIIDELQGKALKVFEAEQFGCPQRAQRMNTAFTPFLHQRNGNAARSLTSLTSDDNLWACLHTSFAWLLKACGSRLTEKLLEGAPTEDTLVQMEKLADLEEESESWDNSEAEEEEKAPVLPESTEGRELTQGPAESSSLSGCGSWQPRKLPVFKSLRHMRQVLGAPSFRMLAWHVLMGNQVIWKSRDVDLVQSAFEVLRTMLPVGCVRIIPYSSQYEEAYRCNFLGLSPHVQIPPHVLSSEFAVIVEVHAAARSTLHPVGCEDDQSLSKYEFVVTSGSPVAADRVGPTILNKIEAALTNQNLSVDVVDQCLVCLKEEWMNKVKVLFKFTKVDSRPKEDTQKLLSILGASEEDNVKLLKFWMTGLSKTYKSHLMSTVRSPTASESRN

Experiments:
Assay in all cases: log2 fold change, soluble protein after heating vs DMSO (PISA); higher = thermal stabilisation; K562 cells, 10 uM, 30 min; active = over 0.2 and 3.5 SD of the protein, either way, in both replicates (recomputed)
[1] = compound: Cc1cccc(CC(=O)N2CCc3c2ccc(-c2cn(C)c4ncnc(N)c24)c3F)n1
Outline: (§1)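 K562 cells at 2×10^6 cells/mL were given 10 μM compound for 30 min. Aliquots then went through 3 min of heating across 48°C-58°C, were pooled, and were extracted in PBS with 0.5% NP-40 at 4°C, and the supernatant after 21,000xg for 90 min was quantified by TMTpro 16plex LC-MS/MS with channel sums equalised. Thermal stability relative to control samples, from duplicates, is given as log2 fold change.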

nilotinib = compound: Cc1cn(-c2cc(NC(=O)c3ccc(C)c(Nc4nccc(-c5cccnc5)n4)c3)cc(C(F)(F)F)c2)cn1 [nilotinib]
Outline: as §1

[2] = compound: Cc1nc(Nc2n[nH]c3c2CN(C(=O)N[C@H](CN(C)C)c2ccccc2)C3(C)C)c2sccc2n1
Outline: as §1

[3] = compound: Cc1ncc(-c2ccnc(Nc3ccc(S(C)(=O)=O)cc3)n2)n1C(C)C
Outline: as §1

[4] = compound: Cn1cc(-c2ccc3c(c2)CCN3C(=O)Cc2cccc(C(F)(F)F)c2)c2c(N)ncnc21
Outline: as §1

tipifarnib = compound: Cn1cncc1[C@@](N)(c1ccc(Cl)cc1)c1ccc2c(c1)c(-c1cccc(Cl)c1)cc(=O)n2C [tipifarnib]
Outline: as §1

[5] = compound: NC(=O)Nc1cc(-c2cccc(F)c2)sc1C(=O)N[C@H]1CCCNC1
Outline: as §1

[6] = compound: NC(=O)c1cnc(N[C@@H]2CCCC[C@@H]2N)nc1Nc1cccc(-n2nccn2)c1
Outline: as §1

[7] = compound: NCC(=O)Nc1ccc(-n2nc(C(F)(F)F)cc2-c2ccc3c(ccc4ccccc43)c2)cc1
Outline: as §1

entinostat = compound: Nc1ccccc1NC(=O)c1ccc(CNC(=O)OCc2cccnc2)cc1 [entinostat]
Outline: as §1

vorinostat = compound: O=C(CCCCCCC(=O)Nc1ccccc1)NO [vorinostat]
Outline: as §1

[8] = compound: O=C1NC(=O)C(c2cnc3ccccn23)=C1c1cn2c3c(cc(F)cc13)CN(C(=O)N1CCCCC1)CC2
Outline: as §1

dasatinib = compound: Cc1nc(Nc2ncc(C(=O)Nc3c(C)cccc3Cl)s2)cc(N2CCN(CCO)CC2)n1 [dasatinib]
Outline: as §1

mubritinib = compound: FC(F)(F)c1ccc(/C=C/c2nc(COc3ccc(CCCCn4ccnn4)cc3)co2)cc1 [mubritinib]
Outline: as §1

[9] = compound: NC1(c2ccc(-c3nc4ccn5c(=O)[nH]nc5c4cc3-c3ccccc3)cc2)CCC1
Outline: as §1

silmitasertib = compound: O=C(O)c1ccc2c(c1)nc(Nc1cccc(Cl)c1)c1ccncc12 [silmitasertib]
Outline: as §1

citarinostat = compound: O=C(CCCCCCNC(=O)c1cnc(N(c2ccccc2)c2ccccc2Cl)nc1)NO [citarinostat]
Outline: as §1

[10] = compound: c1cc(OCCN2CCCCC2)cc(-c2n[nH]c3ccc(-c4nnc[nH]4)cc23)c1
Outline: as §1

[11] = compound: Cn1cc(-c2ccc3nnc(C(F)(F)c4ccc5ncccc5c4)n3n2)cn1
Outline: as §1

bafetinib = compound: Cc1ccc(NC(=O)c2ccc(CN3CC[C@H](N(C)C)C3)c(C(F)(F)F)c2)cc1Nc1nccc(-c2cncnc2)n1 [bafetinib]
Outline: as §1

Measured: log2 fold change

FBRS (UniProt J3KNZ9)
inactive: [1] -0.208 | nilotinib -0.177 | [2] 0.211 | [3] -0.008 | [4] -0.38 | tipifarnib 0.203 | [5] 0.683 | [6] 0.084 | [7] -0.169 | entinostat 0.154 | vorinostat 0.099 | [8] 0.3

FBXL4 (UniProt Q9UKA2)
inactive: [1] 0 | dasatinib -0.12 | mubritinib -0.071 | [5] 0.483 | [9] 0.971 | [7] -0.059 | entinostat -0.012 | vorinostat 0.111 | silmitasertib -0.149 | [8] -0.604

FAM83G (UniProt A6ND36)
inactive: dasatinib 0.102 | [7] -0.039 | [8] -0.003

FNDC3A (UniProt Q9Y2H6)
inactive: citarinostat -0.141 | [10] -0.191

FCF1 (UniProt Q9Y324)
inactive: [1] 0.042 | dasatinib 0.139 | [11] -0.119 | tipifarnib 0.242 | mubritinib -0.129 | [5] 0.244 | [9] 0.097 | [7] 0.36 | entinostat 0 | vorinostat -0.045 | citarinostat -0.137 | silmitasertib 0.099 | [8] 0.349 | [10] -0.375

FMR1NB (UniProt Q8N0W7)
inactive: [6] 0.028 | [8] 0.417

FGF17 (UniProt O60258)
inactive: [1] -0.164 | vorinostat -0.191

FANCL isoform 2 (UniProt Q9NW38)
inactive: [4] 0.104 | [6] -0.098 | [7] 0.094

FAT4 (UniProt Q6V0I7)
inactive: [1] 0.049 | nilotinib -0.104 | [2] 0.027 | [3] -0.075 | [11] 0.257 | mubritinib -0.002 | [5] -0.127 | [6] -0.072 | [9] -0.059 | [7] -0.088 | entinostat -0.049 | vorinostat 0.013 | citarinostat -0.025 | silmitasertib -0.075 | [10] -0.017

FAM219B (UniProt Q5XKK7)
inactive: [1] -0.181 | tipifarnib 0.062 | mubritinib -0.008 | [5] 0.037 | [9] -0.025 | entinostat 0.17 | vorinostat -0.072 | silmitasertib -0.006

FBXL8 (UniProt Q96CD0)
inactive: bafetinib 0.024 | [4] -0.062 | [5] 0.021 | entinostat 0.153 | citarinostat 0.071 | [8] 0.057 | [10] 0.048

FBXW11 (UniProt Q9UKB1)
inactive: [1] -0.004 | dasatinib -0.077 | [4] -0.119 | [11] -0.094 | tipifarnib 0.076 | [6] -0.191 | [7] -0.131 | vorinostat -0.01

FGFR1OP2 isoform 2 (UniProt Q9NVK5)
inactive: [4] -0.064 | tipifarnib 0.034

FANCA (UniProt O15360)
inactive: citarinostat -0.066 | [10] -0.184

FLII isoform 2 (UniProt Q13045)
inactive: [4] 0.232 | [11] -0.022 | tipifarnib -0.033 | [5] 0.129 | [6] 0.052 | entinostat 0.091 | [8] 0.125

FBXO2 (UniProt Q9UK22)
inactive: [1] 0.051 | vorinostat 0.104

FAM53B (UniProt Q14153)
inactive: dasatinib -0.155 | [11] 0.146 | mubritinib 0.009 | [9] -0.155 | [7] -0.229 | citarinostat 0.32 | silmitasertib -0.231 | [8] -0.09 | [10] -0.111

FMOD (UniProt Q06828)
inactive: [6] 0.022

FGG (UniProt P02679)
inactive: [1] 0.165 | [11] -0.018 | tipifarnib 0.127 | vorinostat -0.001

FER (UniProt P16591)
inactive: [1] -0.041 | [6] 0.25 | [7] -0.037 | entinostat 0.032 | vorinostat -0.028 | citarinostat -0.168 | [10] 0.2

FBXO11 isoform 5 (UniProt Q86XK2)
inactive: tipifarnib 0.3 | mubritinib 0.034 | [5] -0.041 | [9] 0.25 | entinostat -0.158 | silmitasertib 0.029 | [8] -0.025

FAM86B2 (UniProt P0C5J1)
inactive: [5] -0.072 | entinostat 0.055

FAM83A (UniProt Q86UY5)
inactive: [1] 0.149 | nilotinib 0.06 | [2] -0.107 | [3] 0.371 | [11] 0.145 | tipifarnib -0.219 | mubritinib -0.089 | [5] 0.082 | [6] -0.32 | [9] 0.032 | [7] -0.033 | entinostat -0.044 | vorinostat 0.219 | silmitasertib -0.039 | [8] 0.024

FBRSL1 (UniProt Q9HCM7)
inactive: nilotinib 0.111 | [2] -0.006 | [3] -0.189 | [11] -0.07 | [6] -0.1 | [8] -0.036

FKBP10 (UniProt Q96AY3)
inactive: [1] -0.024 | [5] -0.032 | entinostat 0.005 | vorinostat 0.024

FAM98C (UniProt Q17RN3)
inactive: [1] -0.071 | [4] -0.001 | mubritinib -0.562 | [6] 0.164 | [9] -0.185 | vorinostat 0.019 | silmitasertib 0.532

FNBP1 (UniProt Q96RU3)
inactive: dasatinib -0.414 | [6] -0.129

FARP2 (UniProt O94887)
inactive: dasatinib 0.035 | [4] -0.071 | tipifarnib 0.099 | [6] -0.145 | [7] -0.21

FIG4 (UniProt Q92562)
inactive: tipifarnib 0.167

FMNL1 isoform 3 (UniProt O95466)
inactive: bafetinib 0.288 | [5] -0.612 | [6] 0.551 | entinostat 0.377 | [8] 0.27

FLCN (UniProt Q8NFG4)
inactive: [1] -0.171 | nilotinib -0.166 | [2] 0.114 | dasatinib 0.031 | [3] 0.141 | [4] -0.046 | [11] 0.044 | mubritinib 0.021 | [5] 0.014 | [6] 0.013 | [9] -0.059 | [7] -0.006 | entinostat 0.04 | vorinostat 0.019 | silmitasertib 0.122 | [8] 0.015

FAM53C (UniProt Q9NYF3)
inactive: [1] -0.041 | nilotinib 0.353 | [2] -0.015 | [3] -0.219 | [4] -0.101 | [11] -0.118 | tipifarnib -0.105 | [5] -0.127 | entinostat 0 | vorinostat 0.043 | citarinostat 0.049 | [10] -0.085

Two records drawn at random from those above:
FIG4 (UniProt Q92562)
inactive: tipifarnib 0.167

FAM53C (UniProt Q9NYF3)
inactive: [1] -0.041 | nilotinib 0.353 | [2] -0.015 | [3] -0.219 | [4] -0.101 | [11] -0.118 | tipifarnib -0.105 | [5] -0.127 | entinostat 0 | vorinostat 0.043 | citarinostat 0.049 | [10] -0.085

Later entries

FAM222B (UniProt Q8WU58)
inactive: dasatinib -0.182 | [11] 0.243 | tipifarnib 0.13 | mubritinib 0.085 | [6] 0.287 | [9] -0.015 | citarinostat -0.045 | silmitasertib 0.022 | [8] -0.215 | [10] 0.071

FBF1 isoform 6 (UniProt Q8TES7)
inactive: nilotinib -0.011 | [2] -0.017 | dasatinib -0.019 | [3] 0.178 | [6] -0.084

FBXO33 (UniProt Q7Z6M2)
inactive: bafetinib 0.074 | [8] -0.107
